{"source": "patent US20080235826A1", "binders": {"B1": {"name": "PAPP5 (phytochrome-associated protein phosphatase 5), full-length, yeast two-hybrid fusion (enzyme, not shown: large carriers)", "chain": "METKNENSDVSRAEEFKSQANEAFKGHKYSSAIDLYTKAIELNSNNAVYWANRAFAHTKLEEYGSAIQDASKAIEVDSRYSKGYYRRGAAYLAMGKFKDALKDFQQVKRLSPNDPDATRKLKECEKAVMKLKFEEAISVPVSERRSVAESIDFHTIEVEPQYSGARIEGEEVTLDFVKTMMEDFKNQKTLHKRYAYQIVLQTRQILLALPSLVDISVPHGKHITVCGDVHGQFYDLLNIFELNGLPSEENPYLFNGDFVDRGSFSVEIILTLFAFKCMCPSSIYLARGNHESKSMNKIYGFEGEVRSKLSEKFVDLFAEVFCYLPLAHVINGKVFVVHGGLFSVDGVKLSDIRAIDRFCEPPEEGLMCELLWSDPQPLPGRGPSKRGVGLSFGGDVTKRFLQDNNLDLLVRSHEVKDEGYEVEHDGKLITVFSAPNYCDQMGNKGAFIRFEAPDMKPNIVTFSAVPHPDVKPMAYANNFLRMFN"}}, "target": "hepatitis C virus (HCV) protein NS5A(N), yeast two-hybrid fusion (hepatitis C virus)", "test": "yeast two-hybrid, plate growth on Leu-drop out and X-gal media", "note": "Results are given in words; binding and its absence hold for the method and conditions named. Where a sequence is shown, tags or fusion partners need not be part of it.", "data": [{"binder": "B1", "values": [{"measurement": "binding", "value": "no binding"}]}]}
